Experimental data published in US7737123B2, “Multidrug resistant anticancer anthracyclines” (The Ohio State University Research Foundation, priority 2005, dated 2010).
Some results were stated once for a whole list of compounds, not compound by compound.

Chains of the proteins cited; added tags and fusions are not shown.
UniProt P08183, whole entry: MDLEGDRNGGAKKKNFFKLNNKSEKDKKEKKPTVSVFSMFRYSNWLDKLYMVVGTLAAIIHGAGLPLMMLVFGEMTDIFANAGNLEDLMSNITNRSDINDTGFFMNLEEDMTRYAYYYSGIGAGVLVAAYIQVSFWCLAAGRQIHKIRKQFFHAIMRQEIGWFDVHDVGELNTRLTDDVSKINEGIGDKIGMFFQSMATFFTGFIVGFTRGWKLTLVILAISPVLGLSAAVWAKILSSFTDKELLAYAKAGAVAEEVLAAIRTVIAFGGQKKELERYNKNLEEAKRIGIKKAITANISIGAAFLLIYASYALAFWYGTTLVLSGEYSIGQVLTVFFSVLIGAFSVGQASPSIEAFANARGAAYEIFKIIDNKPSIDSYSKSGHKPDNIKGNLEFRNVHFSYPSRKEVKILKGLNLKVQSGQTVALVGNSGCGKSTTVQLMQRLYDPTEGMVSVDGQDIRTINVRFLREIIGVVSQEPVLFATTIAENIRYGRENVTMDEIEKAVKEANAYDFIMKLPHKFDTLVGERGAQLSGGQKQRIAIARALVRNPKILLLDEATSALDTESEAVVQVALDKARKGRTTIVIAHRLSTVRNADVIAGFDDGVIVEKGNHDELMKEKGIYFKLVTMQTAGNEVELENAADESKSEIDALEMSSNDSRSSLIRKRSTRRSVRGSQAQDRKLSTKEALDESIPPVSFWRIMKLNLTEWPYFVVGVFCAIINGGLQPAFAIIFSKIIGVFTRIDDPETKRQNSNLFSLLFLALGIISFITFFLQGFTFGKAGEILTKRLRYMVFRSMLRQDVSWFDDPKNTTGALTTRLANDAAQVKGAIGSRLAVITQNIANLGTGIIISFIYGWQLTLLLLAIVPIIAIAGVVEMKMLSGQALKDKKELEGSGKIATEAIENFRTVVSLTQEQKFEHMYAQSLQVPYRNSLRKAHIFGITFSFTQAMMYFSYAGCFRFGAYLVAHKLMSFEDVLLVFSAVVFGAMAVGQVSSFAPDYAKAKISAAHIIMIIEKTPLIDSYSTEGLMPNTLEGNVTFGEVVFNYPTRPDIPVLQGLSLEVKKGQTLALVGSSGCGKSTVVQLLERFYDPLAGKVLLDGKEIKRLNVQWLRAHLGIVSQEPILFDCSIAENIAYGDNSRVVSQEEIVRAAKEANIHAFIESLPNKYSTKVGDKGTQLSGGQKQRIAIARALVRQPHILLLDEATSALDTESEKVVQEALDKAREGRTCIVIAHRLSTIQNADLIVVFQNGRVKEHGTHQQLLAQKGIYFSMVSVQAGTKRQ

Biological target: P-gp (Homo sapiens, UniProt P08183)
Experiment: P-gp export (uptake and efflux by FACS) in K562/Dox cells with or without CsA
Conditions: CsA 5 μM, 30 min incubation

SMILES: COc1cccc2c1C(=O)c1c(O)c3c(c(O)c1C2=O)C[C@@](O)(C(C)=O)C[C@@H]3OC1CC(N=[N+]=[N-])C(O)C(C)O1 (stereo partly shown) [ADNR, 3′-azido-deamino-daunorubicin]
- effect of P-gp inhibitor (CsA) on retention of drug in K562/Dox cells, uptake and efflux phases: did not show any effect
